Source: PubChem BioAssay AID248 (DTP/NCI, 2004)
The list is a part of this screen's results and no random one: it is rich in T/C values a quarter to a half above the control, in often repeated tests (any T/C) and in doses without a T/C. Other doses and runs of a compound stand elsewhere. T/C is the treated group as % of the vehicle group. Some doses have a count of surviving animals in place of a T/C: the source files T/C as zero there, which appears to mark a toxic dose or a test without result, not a measured value. Some doses without a T/C left all or most animals alive at the check, yet need not have been tolerated: the source hardly ever lists a survival T/C far under the control, and the zero likely stands for such cases as well. Counts of survivors are from the toxicity check (mostly the fifth day) where no day follows; animals may have died later. Schedule codes are those of the source, taken here to give the interval after Q, in days (D) or hours (H), and the number of doses after X. Some entries were tested several times; the results are listed from low to high. Where survival is the endpoint, the PubChem record calls one and a half times the control and up active, and a quarter to a half above the control has no call in these data; cut-offs in other NCI protocols can differ. Some T/C values are followed by the survivors on the day toxicity was checked, most often the fifth; where none is given, no animal had died by that day.

Tested on: L1210 leukemia ip in BDF1 mice, survival T/C
Assay: NCI In Vivo Anticancer Drug Screen. Data for tumor model L1210 Leukemia (intraperitoneal) in B6D2F1 (BDF1) mice
Details: T/C endpoint: mean survival time, higher T/C = longer survival
[1] = dose: 100.0 mg/kg/injection, schedule: Q01DX009 (ip), vehicle: Klucel (hydroxypropylcellulose) (HPC)
[2] = dose: 100.0 mg/kg/injection, schedule: Q01DX009 (ip), vehicle: saline with Tween-80
[3] = dose: 400.0 mg/kg/injection, schedule: Q01DX001 (ip), vehicle: saline
[4] = dose: 400.0 mg/kg/injection, schedule: Q04DX003 (ip), vehicle: saline with Tween-80

With `O=c1[nH]c(=O)n(C2CCCCO2)cc1F` (stereo unspecified) the survivor count (dose: 320.0 mg/kg/injection, schedule: Q01DX009 (ip), vehicle: saline) was 3 of 8.
For `CCCCCCCCCCS`, the survivor count (dose: 400.0 mg/kg/injection, schedule: Q01DX001 (ip), vehicle: carboxymethylcellulose (CMC)) was 1 of 4.
With `Cc1cc(C)c(N(C)C(=O)CCC(=O)O)c(C)c1Br` the survivor count (dose: 400.0 mg/kg/injection, schedule: Q01DX009 (ip), vehicle: Klucel (hydroxypropylcellulose) (HPC)) was 1 of 6.
In the case of `Cc1cn(Cc2ccc(Cl)cc2Cl)c(C)n1`, the T/C (dose: 50.0 mg/kg/injection, schedule: Q01DX009 (ip), vehicle: Klucel (hydroxypropylcellulose) (HPC)) is reported as 95, 97, 101, 111 % of control, the T/C [1] is reported as 98 [5 of 6 alive] and 107 % of control [4 of 6 alive] and the survivor count [1] is reported as 1 of 3. For the same compound, the T/C (dose: 100.0 mg/kg/injection, schedule: Q04DX002 (ip), vehicle: Klucel (hydroxypropylcellulose) (HPC)) was 89 [2 of 3 alive], 107, 116, 120 % of control, the survivor count (dose: 200.0 mg/kg/injection, schedule: Q01DX009 (ip), vehicle: Klucel (hydroxypropylcellulose) (HPC)) was 0 of 3 and 0 of 6 and the survivor count (dose: 200.0 mg/kg/injection, schedule: Q04DX002 (ip), vehicle: Klucel (hydroxypropylcellulose) (HPC)) was 0 of 3, 0 of 6, 2 of 6. The survivor count (dose: 400.0 mg/kg/injection, schedule: Q04DX002 (ip), vehicle: Klucel (hydroxypropylcellulose) (HPC)) was 0 of 3 and 0 of 6.
In the case of `COc1cccc(NC(=O)CCC(=O)O)c1`, the survivor count [2] is reported as 6 of 6.
For `CCCNC(=O)NO`, the T/C (dose: 400.0 mg/kg/injection, schedule: Q01DX009 (ip), vehicle: other) was 132 % of control, the T/C (dose: 600.0 mg/kg/injection, schedule: Q01DX009 (ip), vehicle: other) was 146 % of control and the T/C (dose: 900.0 mg/kg/injection, schedule: Q01DX009 (ip), vehicle: other) was 141 % of control.
`C=C1C(=O)OC2CC(C)C(C(O)CC(C)O)=CCC12` (stereo unspecified) was tested, and the survivor count (dose: 200.0 mg/kg/injection, schedule: Q01DX001 (ip), vehicle: water) was 1 of 6.
For `Cc1cc(=O)[nH]c(O)c1C(=O)/C=C/c1ccccc1`, the survivor count [3] was 1 of 6.
With `O=S(=O)(F)c1cc(Cl)ccc1C[P+](c1ccccc1)(c1ccccc1)c1ccccc1` the survivor count (dose: 40.0 mg/kg/injection, schedule: Q04DX003 (ip), vehicle: saline) was 4 of 6.
In the case of `CC(C)(C1c2ccccc2NC(=O)c2ccccc21)[N+](=O)[O-]` (stereo unspecified), the survivor count [4] is reported as 1 of 6.
With `CC(C)(C)SCCC(=O)NC1CCCCC1` the survivor count (dose: 400.0 mg/kg/injection, schedule: Q04DX003 (ip), vehicle: saline) was 3 of 6.
In the case of `O=C(O)/C(Cl)=C(/Cl)C(Cl)=C(Cl)Cl`, the survivor count [2] is reported as 4 of 6 and the survivor count (dose: 200.0 mg/kg/injection, schedule: Q01DX009 (ip), vehicle: saline with Tween-80) is reported as 0 of 6.
For `Nc1cccc(NC=O)c1`, the survivor count [2] was 3 of 6.
`CCOC(OCC)c1nc(N)nc(N)c1-c1ccc(Cl)c(Cl)c1` was tested, and the T/C (dose: 200.0 mg/kg/injection, schedule: Q01DX009 (ip), vehicle: saline) was 136 % of control and the survivor count [3] was 1 of 6.
For `OC1C2CCN(CC2)C1C(c1ccccc1)c1ccccc1` (stereo unspecified), the survivor count (dose: 200.0 mg/kg/injection, schedule: Q04DX003 (ip), vehicle: saline with Tween-80) was 2 of 6 and the survivor count [4] was 0 of 6.
